Literature values as cited in US20070196517A1, “Modified Saponin Molluscicide” (priority 2005, published 2007).
Counter-ions that a name gives are not always drawn. Some entries share one result that the patent states for a list of compounds.

Tested on: golden apple snails
Conditions: golden apple snails that are directly hit

## O=C(Nc1ccc([N+](=O)[O-])cc1Cl)c1cc(Cl)ccc1O [Niclosamide, 2-aminoethanol salt of 2′,5-dichloro-4′,nitro-salicylanilide]
  duration of efficacy: 2 to 3 days

## CC1OC(C)OC(C)OC(C)O1 (centres unmarked) [metaldehyde]
  duration of efficacy: 2 to 3 days
